# In PubChem BioAssay AID2685 (National Center for Advancing Translational Sciences (NCATS), 2010):
# The list shows a part of the results. Further columns of the screen follow, without active or inactive calls. Most of these compounds were active or inconclusive in the main read-out, so they are no random draw. Potencies come from curve fits of mixed quality, noted in brackets.
# Assay: qHTS Assay for Lipid Storage Modulators in Drosophila S3 Cells;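 on cell number change: cells counted by Cell Tracker Red CMTPX staining in the red channel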
# Details: BODIPY lipid droplet fluorescence, 18-24 h; for cell number change: measured here: cell count max response, cells fed with added oleic acid
# Procedure, shortened: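 Laser-scanning cytometry quantifies lipid droplet accumulation (500–530 nm total intensity; droplet/cell object ratio) in oleic acid-fed (400 uM added) Drosophila S3 cells treated with a concentration series. 20 uM Triacsin C defined 100% inhibition.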
# [1] = measured here: cell number channel AC50, cells fed with added oleic acid
# [2] = measured here: lipid fluorescence (Fed channel) AC50, cells fed with added oleic acid
smiles,measurement,setting,value
Cc1cnc(NC(=O)CN(C)S(=O)(=O)c2ccc(Cl)cc2)s1,cell number change,,82.6%
same,AC50,[1],"29.1 µM [rising, single point]"
CCCNC(=O)c1cc2c3ccccc3n(C)c2s1,AC50,[2],"0.58 µM [falling, single point]"
Cc1ccc(S(=O)(=O)N/N=C\c2cc([N+](=O)[O-])ccc2Cl)cc1,AC50,[2],"4.61 µM [falling, full curve]"
O=C(CN1CCN(c2ncc(C(F)(F)F)cc2Cl)CC1)N1CCN(c2ncc(C(F)(F)F)cc2Cl)CC1,cell number change,,135%
same,AC50,[1],"16.4 µM [rising, partial curve]"
same,AC50,[2],"4.11 µM [rising, single point]"
COc1ccc(CNc2nc3nc(-c4ccccc4)cc(=O)n3[nH]2)cc1OC,cell number change,,-27.3%
same,AC50,[1],"0.206 µM [falling, full curve]"
COC(=O)c1ccc(COc2ccccc2/C=C(\C#N)C(=O)Nc2ccc(C)cc2C)cc1,cell number change,,-39.2%
same,AC50,[1],"0.651 µM [falling, full curve]"
same,AC50,[2],"29.1 µM [falling, single point]"
CCN(CC)CCCNC(=O)Cn1nc([N+](=O)[O-])c(Cl)c1C,cell number change,,-8.16%
same,AC50,[2],"0.116 µM [falling, full curve, poor fit]"
O=C(Cn1nnc2ccccc2c1=O)NC1CCCCC1,cell number change,,-6.41%
N#C/C(=C\c1cccc(NC(=O)c2ccccc2Cl)c1)C(=O)NCCc1ccccc1,cell number change,,13.6%
CSCCC(NC(=O)c1ccccc1Cl)C(=O)OCC(=O)N1CCCC1=O (centres undefined),cell number change,,-50%
same,AC50,[1],"0.92 µM [falling, full curve]"
Cc1cccc(N2CCN(c3nnnn3-c3ccccc3)CC2C)c1 (centres undefined),cell number change,,31%
same,AC50,[1],"23.1 µM [rising, single point]"
same,AC50,[2],"29.1 µM [rising, single point]"
O=C(Cn1cnc2cc([N+](=O)[O-])ccc2c1=O)NCCc1ccc(Cl)cc1,cell number change,,-3.86%
COc1ccc(CCn2c(SCC(=O)Nc3cc(C)on3)nc3ccsc3c2=O)cc1OC,cell number change,,49.4%
same,AC50,[1],"0.291 µM [rising, full curve]"
same,AC50,[2],"0.184 µM [rising, full curve, poor fit]"
CCOC(=O)c1c(-c2ccccc2)oc2ccc(OCC(O)CNCCN(C)C)cc12 (centres undefined),cell number change,,-49.3%
same,AC50,[1],"20.6 µM [falling, single point]"
same,AC50,[2],"29.1 µM [falling, single point]"
CN(C)S(=O)(=O)c1ccc(/C(O)=C2/C(=O)C(=O)N(Cc3cccnc3)C2c2ccco2)cc1 (centres undefined),cell number change,,-23.6%
same,AC50,[2],"0.082 µM [falling, full curve, poor fit]"
Cc1ccc(S(=O)(=O)N(C)c2cc(S(=O)(=O)Nc3ccncc3)c(C)cc2C)cc1,cell number change,,9.76%
same,AC50,[2],"5.8 µM [rising, full curve, poor fit]"
CC1=C(C(=O)Nc2cccc(C(=O)NC(C)C)c2)SCCO1,cell number change,,151%
same,AC50,[1],"0.116 µM [rising, full curve, poor fit]"
same,AC50,[2],"0.146 µM [rising, full curve, poor fit]"
NC(=S)N=Nc1c(O)n(CCCl)c2ccc(Cl)cc12,cell number change,,9.54%
CCOC(=O)N1CCN(C(=O)C(C)N(c2ccc(Oc3ccccc3)cc2)S(C)(=O)=O)CC1 (centres undefined),AC50,[1],"2.31 µM [rising, partial curve]"
same,AC50,[2],"2.91 µM [rising, partial curve]"
O=c1[nH]c(CN2CCN(C/C=C/c3ccccc3)CC2)nc2ccccc12,cell number change,,133%
same,AC50,[1],"14.6 µM [rising, partial curve]"
same,AC50,[2],"6.51 µM [rising, single point]"
Cc1cc(N2C(=O)C(O)=C(C(=O)c3cccs3)C2c2cccc(Br)c2)no1 (centres undefined),cell number change,,-24.8%
same,AC50,[2],"29.1 µM [falling, single point]"
O=C(CSc1ccccc1)NNC(=O)c1ccccc1O,cell number change,,30.8%
same,AC50,[1],"14.6 µM [rising, partial curve, poor fit]"
Cc1nc(S(=O)(=O)c2ccc(Cl)cc2)c(NCc2ccccc2)o1,AC50,[1],"0.184 µM [rising, full curve, poor fit]"
CC(C)C(=O)Nc1cccc(C(=O)OCC(=O)c2ccc(Cl)cc2Cl)c1,cell number change,,40.7%
same,AC50,[1],"32.6 µM [rising, single point]"
same,AC50,[2],"29.1 µM [rising, single point]"
Nc1scn[n+]1Cc1cccc2cccnc12,cell number change,,7.18%
same,AC50,[2],"14.6 µM [rising, partial curve]"
Cc1ccc(C)c(NC(=O)c2nc(Cl)ccc2Cl)c1,cell number change,,10%
same,AC50,[2],"0.326 µM [rising, partial curve, poor fit]"
CCc1c(C)c2nncn2[nH]c1=O,cell number change,,-27.1%
same,AC50,[1],"0.259 µM [falling, full curve]"
CC(=O)c1ccc(NC(=O)CN2C(=O)/C(=C/C(C)=C/c3ccccc3)SC2=S)cc1,cell number change,,15.6%
same,AC50,[2],"5.8 µM [falling, single point]"
COCCn1cnc2c(c1=O)c1nc3ccccc3nc1n2/N=C/c1ccco1,cell number change,,-16.6%
same,AC50,[2],"8.2 µM [falling, partial curve]"
Cc1ccccc1NC(=O)Cn1nc(C)c2ccccc2c1=O,cell number change,,1.37%
same,AC50,[2],"29.1 µM [rising, single point]"
CCc1ccc(O)c(N=Cc2ccccc2O)c1,cell number change,,1.12%
Cc1cc(NC(=O)C(C)Sc2nnc(NCc3ccco3)s2)no1 (centres undefined),cell number change,,0.877%
same,AC50,[2],"2.59 µM [falling, single point]"
O=S(=O)(Nc1ccccc1N1CCOCC1)c1ccc(Cl)s1,cell number change,,0.558%
same,AC50,[2],"32.6 µM [falling, single point]"
CCCn1c(N2CCN(CC(=O)NCc3cccs3)CC2)nc2ccccc21,AC50,[1],"4.11 µM [rising, single point]"
same,AC50,[2],"6.51 µM [rising, single point]"
CCOC(=O)c1sc(-c2ccccc2)nc1C,cell number change,,5.23%
same,AC50,[2],"29.1 µM [falling, single point]"
O=C(/C=C/c1c(F)cccc1Cl)Nc1ccncc1,cell number change,,26.1%
same,AC50,[2],"3.26 µM [rising, single point]"
COc1ccc(-n2c(=S)[nH]c3cc(C(=O)NCCCN4CCOCC4)ccc3c2=O)cc1OC,cell number change,,3.42%
same,AC50,[2],"20.6 µM [rising, single point]"
Cc1ccc(/C=C/C(=O)N2CCN(c3ncccn3)CC2)o1,cell number change,,1.95%
same,AC50,[2],"2.59 µM [rising, partial curve]"
COc1ccc(CNC(=O)c2c(O)c3cccc4c3n(c2=O)CCC4)cc1,cell number change,,14.3%
same,AC50,[1],"0.461 µM [rising, full curve]"
same,AC50,[2],"0.517 µM [rising, full curve, poor fit]"
Cc1ccsc1C(=O)OCc1csc(-c2ccccc2)n1,cell number change,,8.36%
Cc1nnc(NC(=O)CSc2nccn2Cc2ccccc2)s1,cell number change,,16.6%
same,AC50,[2],"7.31 µM [rising, single point]"
CCOC(=O)N1CCN(S(=O)(=O)c2ccc(C(=O)Nc3nnc(C4CC4)o3)cc2)CC1,cell number change,,6.21%
O=C(CNC(=O)c1ccccc1F)OCCCOC(=O)CNC(=O)c1ccccc1F,cell number change,,-26.7%
same,AC50,[1],"0.13 µM [falling, full curve, poor fit]"
O=C(NNc1c2ccccc2nc2ccccc12)C12CC3CC(CC(C3)C1)C2,cell number change,,-46%
same,AC50,[1],"20.6 µM [falling, single point]"
same,AC50,[2],"20.6 µM [falling, single point]"
CC(C)c1c(C(=O)N/N=C/c2ccoc2)nnn1-c1nonc1N,cell number change,,9.73%
same,AC50,[2],"29.1 µM [rising, single point]"
COc1ccc(C(=O)NNC(=O)CSc2nnc(C3CC3)n2C)cc1,cell number change,,19.2%
same,AC50,[2],"0.116 µM [falling, single point]"
CN(C)c1cc[n+](CC(=O)Nc2ccc(Oc3ccccc3)cc2)cc1,cell number change,,18.6%
same,AC50,[1],"6.51 µM [falling, single point]"
CCCS(=O)(=O)N1CCC(C(=O)NCCN2CCC(Cc3ccccc3)CC2)CC1,cell number change,,-11.1%
same,AC50,[2],"2.91 µM [falling, full curve]"
COc1ccc(NS(=O)(=O)c2ccc3c(c2)OCCO3)cc1OC,cell number change,,7.89%
COc1ccc(C(=O)NC2CCN(S(=O)(=O)Cc3ccccc3)CC2)c(OC)c1,cell number change,,7.07%
same,AC50,[2],"2.59 µM [rising, partial curve]"
C/C(=N\NC(=O)c1cc(-c2ccc(Cl)s2)[nH]n1)c1ccncc1,cell number change,,5.46%
same,AC50,[2],"29.1 µM [rising, single point]"
CCOc1ncccc1C(=O)OCc1csc(CC(=O)Nc2ccccc2C)n1,cell number change,,-3.61%
same,AC50,[2],"29.1 µM [falling, single point]"
Cc1ccc(NC(=O)c2cc3c(s2)CCCC3)cc1S(=O)(=O)Nc1ccccc1Cl,cell number change,,-25.2%
same,AC50,[2],"29.1 µM [falling, single point]"
O=C(N[C@@H](Cc1ccccc1)C(=O)NCc1ccc(F)cc1)C1CCNCC1,cell number change,,-54.4%
same,AC50,[1],"20.6 µM [falling, single point]"
Cc1cccc(NC(=S)NC(=O)/C=C/c2ccco2)n1,cell number change,,82.4%
same,AC50,[1],"1.84 µM [rising, full curve]"
same,AC50,[2],"1.84 µM [rising, partial curve]"
COc1ccc(C(=O)NCC(=O)N/N=C/C(C)=C/c2ccco2)cc1OC,cell number change,,32%
same,AC50,[1],"3.26 µM [rising, partial curve]"
same,AC50,[2],"7.31 µM [rising, partial curve]"
O=C(CO/N=C/c1ccc(Cl)cc1Cl)NNC(=O)c1cccc(Cl)c1,cell number change,,46.6%
same,AC50,[1],"11.6 µM [rising, partial curve, poor fit]"
same,AC50,[2],"7.31 µM [rising, partial curve]"
COc1ccc(N(CC(=O)Nc2ccc(F)c(F)c2)S(=O)(=O)c2c(C)n[nH]c2C)cc1,cell number change,,-11.8%
same,AC50,[1],"0.00517 µM [falling, full curve, poor fit]"
same,AC50,[2],"29.1 µM [falling, single point]"

# An excerpt of these results, bar-delimited:
smiles | measurement | setting | value
CCCNC(=O)c1cc2c3ccccc3n(C)c2s1 | AC50 | [2] | 0.58 µM [falling, single point]
O=C(CN1CCN(c2ncc(C(F)(F)F)cc2Cl)CC1)N1CCN(c2ncc(C(F)(F)F)cc2Cl)CC1 | AC50 | [1] | 16.4 µM [rising, partial curve]
COc1ccc(CNc2nc3nc(-c4ccccc4)cc(=O)n3[nH]2)cc1OC | AC50 | [1] | 0.206 µM [falling, full curve]
CCN(CC)CCCNC(=O)Cn1nc([N+](=O)[O-])c(Cl)c1C | AC50 | [2] | 0.116 µM [falling, full curve, poor fit]
CSCCC(NC(=O)c1ccccc1Cl)C(=O)OCC(=O)N1CCCC1=O (centres undefined) | AC50 | [1] | 0.92 µM [falling, full curve]
Cc1cccc(N2CCN(c3nnnn3-c3ccccc3)CC2C)c1 (centres undefined) | cell number change |  | 31%
Cc1ccc(S(=O)(=O)N(C)c2cc(S(=O)(=O)Nc3ccncc3)c(C)cc2C)cc1 | cell number change |  | 9.76%
Cc1cc(N2C(=O)C(O)=C(C(=O)c3cccs3)C2c2cccc(Br)c2)no1 (centres undefined) | cell number change |  | -24.8%
O=C(CSc1ccccc1)NNC(=O)c1ccccc1O | AC50 | [1] | 14.6 µM [rising, partial curve, poor fit]
CC(C)C(=O)Nc1cccc(C(=O)OCC(=O)c2ccc(Cl)cc2Cl)c1 | AC50 | [1] | 32.6 µM [rising, single point]
same | AC50 | [2] | 29.1 µM [rising, single point]
CCc1c(C)c2nncn2[nH]c1=O | AC50 | [1] | 0.259 µM [falling, full curve]
COCCn1cnc2c(c1=O)c1nc3ccccc3nc1n2/N=C/c1ccco1 | cell number change |  | -16.6%
CCc1ccc(O)c(N=Cc2ccccc2O)c1 | cell number change |  | 1.12%
O=S(=O)(Nc1ccccc1N1CCOCC1)c1ccc(Cl)s1 | AC50 | [2] | 32.6 µM [falling, single point]
CCOC(=O)c1sc(-c2ccccc2)nc1C | cell number change |  | 5.23%
COc1ccc(CNC(=O)c2c(O)c3cccc4c3n(c2=O)CCC4)cc1 | AC50 | [1] | 0.461 µM [rising, full curve]
O=C(NNc1c2ccccc2nc2ccccc12)C12CC3CC(CC(C3)C1)C2 | AC50 | [1] | 20.6 µM [falling, single point]
same | AC50 | [2] | 20.6 µM [falling, single point]
CC(C)c1c(C(=O)N/N=C/c2ccoc2)nnn1-c1nonc1N | cell number change |  | 9.73%
O=C(N[C@@H](Cc1ccccc1)C(=O)NCc1ccc(F)cc1)C1CCNCC1 | cell number change |  | -54.4%
O=C(CO/N=C/c1ccc(Cl)cc1Cl)NNC(=O)c1cccc(Cl)c1 | AC50 | [2] | 7.31 µM [rising, partial curve]
COc1ccc(N(CC(=O)Nc2ccc(F)c(F)c2)S(=O)(=O)c2c(C)n[nH]c2C)cc1 | AC50 | [1] | 0.00517 µM [falling, full curve, poor fit]
